35 targets from the supplement of paper PMC10849652 can be followed below.

Protein sequences, listed by entry. Tags and fused reporters are not part of them. Lines headed by an entry give the natural chain unless they say otherwise; changes in a name come on top.
UniProt O43402: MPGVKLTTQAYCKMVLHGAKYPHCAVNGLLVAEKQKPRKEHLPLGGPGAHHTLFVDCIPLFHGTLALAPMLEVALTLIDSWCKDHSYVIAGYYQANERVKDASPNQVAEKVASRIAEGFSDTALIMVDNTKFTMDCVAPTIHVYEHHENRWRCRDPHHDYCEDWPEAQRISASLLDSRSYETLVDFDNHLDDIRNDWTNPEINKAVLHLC
UniProt Q8NFI3: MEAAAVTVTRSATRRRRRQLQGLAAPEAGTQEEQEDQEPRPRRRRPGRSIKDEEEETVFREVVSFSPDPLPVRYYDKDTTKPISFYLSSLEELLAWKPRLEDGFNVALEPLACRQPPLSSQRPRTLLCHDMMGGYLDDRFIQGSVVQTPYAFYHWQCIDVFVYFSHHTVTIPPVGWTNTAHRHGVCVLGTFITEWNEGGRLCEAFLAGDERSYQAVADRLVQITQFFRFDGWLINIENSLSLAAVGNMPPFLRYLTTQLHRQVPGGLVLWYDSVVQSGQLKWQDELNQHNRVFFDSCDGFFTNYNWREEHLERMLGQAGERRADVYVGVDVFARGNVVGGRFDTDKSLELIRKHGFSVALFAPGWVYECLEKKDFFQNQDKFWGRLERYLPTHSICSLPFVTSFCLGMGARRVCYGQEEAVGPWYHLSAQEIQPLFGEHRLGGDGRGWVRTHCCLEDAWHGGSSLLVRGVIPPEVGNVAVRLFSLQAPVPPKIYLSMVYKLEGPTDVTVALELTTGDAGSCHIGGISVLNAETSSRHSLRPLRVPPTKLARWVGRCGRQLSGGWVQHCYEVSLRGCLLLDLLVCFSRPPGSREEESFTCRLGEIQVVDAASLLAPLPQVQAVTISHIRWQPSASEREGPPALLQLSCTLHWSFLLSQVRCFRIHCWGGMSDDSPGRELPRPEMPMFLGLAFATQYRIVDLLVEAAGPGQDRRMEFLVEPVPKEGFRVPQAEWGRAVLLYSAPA
UniProt Q9UBC2: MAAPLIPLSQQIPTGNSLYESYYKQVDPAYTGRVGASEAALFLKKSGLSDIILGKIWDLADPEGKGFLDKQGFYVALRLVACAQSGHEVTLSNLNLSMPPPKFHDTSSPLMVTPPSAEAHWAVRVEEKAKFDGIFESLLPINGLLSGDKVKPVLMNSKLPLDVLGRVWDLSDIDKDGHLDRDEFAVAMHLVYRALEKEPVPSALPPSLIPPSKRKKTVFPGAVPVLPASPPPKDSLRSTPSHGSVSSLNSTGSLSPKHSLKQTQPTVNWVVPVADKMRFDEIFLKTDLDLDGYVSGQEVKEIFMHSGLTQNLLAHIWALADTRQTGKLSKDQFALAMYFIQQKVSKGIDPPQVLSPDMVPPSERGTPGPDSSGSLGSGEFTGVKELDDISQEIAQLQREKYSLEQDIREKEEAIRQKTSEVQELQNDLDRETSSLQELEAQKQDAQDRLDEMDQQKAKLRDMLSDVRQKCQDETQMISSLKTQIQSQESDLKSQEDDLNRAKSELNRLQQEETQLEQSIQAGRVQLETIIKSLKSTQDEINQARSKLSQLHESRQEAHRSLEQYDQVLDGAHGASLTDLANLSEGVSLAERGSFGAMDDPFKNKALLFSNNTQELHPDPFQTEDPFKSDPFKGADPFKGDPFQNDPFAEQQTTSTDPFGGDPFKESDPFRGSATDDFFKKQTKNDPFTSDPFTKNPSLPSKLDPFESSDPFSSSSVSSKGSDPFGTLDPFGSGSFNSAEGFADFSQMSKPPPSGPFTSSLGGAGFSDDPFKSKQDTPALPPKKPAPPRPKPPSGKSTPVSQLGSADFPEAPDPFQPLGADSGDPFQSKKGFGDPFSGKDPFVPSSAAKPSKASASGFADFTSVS
UniProt Q6ZTU2, whole entry, looked up: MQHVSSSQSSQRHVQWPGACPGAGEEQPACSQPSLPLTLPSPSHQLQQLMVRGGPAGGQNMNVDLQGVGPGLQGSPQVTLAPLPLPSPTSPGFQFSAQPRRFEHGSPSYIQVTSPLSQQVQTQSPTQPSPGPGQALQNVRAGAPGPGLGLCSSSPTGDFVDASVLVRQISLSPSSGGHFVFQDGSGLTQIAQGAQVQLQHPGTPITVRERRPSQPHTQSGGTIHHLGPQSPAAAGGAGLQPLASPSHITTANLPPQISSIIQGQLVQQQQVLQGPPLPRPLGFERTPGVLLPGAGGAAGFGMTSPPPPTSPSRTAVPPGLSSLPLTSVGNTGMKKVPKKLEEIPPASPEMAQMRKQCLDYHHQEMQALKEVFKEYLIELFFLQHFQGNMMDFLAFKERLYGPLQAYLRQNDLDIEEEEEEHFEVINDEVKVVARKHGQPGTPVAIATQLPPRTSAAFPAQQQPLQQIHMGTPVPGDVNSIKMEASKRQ
UniProt O75356: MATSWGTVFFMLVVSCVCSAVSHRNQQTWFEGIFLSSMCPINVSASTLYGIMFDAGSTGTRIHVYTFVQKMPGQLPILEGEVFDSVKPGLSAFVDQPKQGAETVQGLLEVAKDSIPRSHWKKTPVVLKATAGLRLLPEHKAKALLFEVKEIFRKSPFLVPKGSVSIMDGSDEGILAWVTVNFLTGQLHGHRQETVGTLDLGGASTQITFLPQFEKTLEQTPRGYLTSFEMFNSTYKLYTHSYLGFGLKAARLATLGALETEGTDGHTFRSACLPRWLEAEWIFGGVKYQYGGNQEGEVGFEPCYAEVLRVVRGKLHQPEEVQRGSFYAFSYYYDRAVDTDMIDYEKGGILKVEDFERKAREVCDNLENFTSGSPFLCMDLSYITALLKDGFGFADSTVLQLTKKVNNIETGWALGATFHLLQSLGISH
UniProt Q9P2K8: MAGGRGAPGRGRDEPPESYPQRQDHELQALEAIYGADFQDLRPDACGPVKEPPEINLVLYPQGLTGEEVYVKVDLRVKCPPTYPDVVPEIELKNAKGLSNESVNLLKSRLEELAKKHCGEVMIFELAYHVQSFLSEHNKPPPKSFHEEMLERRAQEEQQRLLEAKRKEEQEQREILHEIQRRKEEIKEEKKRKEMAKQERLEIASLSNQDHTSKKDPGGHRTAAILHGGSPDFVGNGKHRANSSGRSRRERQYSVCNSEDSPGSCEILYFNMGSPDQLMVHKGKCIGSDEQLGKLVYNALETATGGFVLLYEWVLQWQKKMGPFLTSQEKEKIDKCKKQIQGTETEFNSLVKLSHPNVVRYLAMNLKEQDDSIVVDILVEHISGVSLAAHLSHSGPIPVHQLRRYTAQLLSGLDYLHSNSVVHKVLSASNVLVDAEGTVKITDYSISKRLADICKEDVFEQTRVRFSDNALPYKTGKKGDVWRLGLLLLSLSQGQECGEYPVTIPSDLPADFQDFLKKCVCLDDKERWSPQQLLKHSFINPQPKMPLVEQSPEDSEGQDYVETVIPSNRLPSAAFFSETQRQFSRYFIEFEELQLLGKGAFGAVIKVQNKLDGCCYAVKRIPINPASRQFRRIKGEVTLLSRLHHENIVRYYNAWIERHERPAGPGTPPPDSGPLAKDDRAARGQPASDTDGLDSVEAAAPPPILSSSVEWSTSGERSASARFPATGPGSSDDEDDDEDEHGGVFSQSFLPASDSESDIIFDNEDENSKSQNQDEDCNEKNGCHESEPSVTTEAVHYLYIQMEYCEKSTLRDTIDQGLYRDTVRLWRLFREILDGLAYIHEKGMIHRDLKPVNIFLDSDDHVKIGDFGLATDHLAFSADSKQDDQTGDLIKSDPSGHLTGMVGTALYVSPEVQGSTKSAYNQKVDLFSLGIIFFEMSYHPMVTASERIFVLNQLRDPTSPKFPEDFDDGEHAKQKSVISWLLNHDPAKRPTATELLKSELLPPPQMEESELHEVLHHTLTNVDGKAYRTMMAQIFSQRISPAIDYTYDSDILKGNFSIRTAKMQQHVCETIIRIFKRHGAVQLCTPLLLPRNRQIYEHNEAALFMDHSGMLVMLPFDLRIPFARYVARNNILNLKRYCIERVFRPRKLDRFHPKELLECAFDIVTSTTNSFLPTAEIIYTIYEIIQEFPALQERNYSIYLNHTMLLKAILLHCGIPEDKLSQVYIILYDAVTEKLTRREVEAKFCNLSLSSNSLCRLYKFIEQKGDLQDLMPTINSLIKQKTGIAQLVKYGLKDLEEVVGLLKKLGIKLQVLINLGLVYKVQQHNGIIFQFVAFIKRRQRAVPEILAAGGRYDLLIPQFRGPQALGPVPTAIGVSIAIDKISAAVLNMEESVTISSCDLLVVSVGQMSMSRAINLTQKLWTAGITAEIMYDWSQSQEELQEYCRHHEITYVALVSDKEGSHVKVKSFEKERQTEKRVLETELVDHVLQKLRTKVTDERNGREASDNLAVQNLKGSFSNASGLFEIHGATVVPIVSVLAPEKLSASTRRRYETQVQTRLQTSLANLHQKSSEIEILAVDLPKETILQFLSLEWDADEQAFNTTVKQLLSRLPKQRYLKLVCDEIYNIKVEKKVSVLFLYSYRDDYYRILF
UniProt Q2NKX8: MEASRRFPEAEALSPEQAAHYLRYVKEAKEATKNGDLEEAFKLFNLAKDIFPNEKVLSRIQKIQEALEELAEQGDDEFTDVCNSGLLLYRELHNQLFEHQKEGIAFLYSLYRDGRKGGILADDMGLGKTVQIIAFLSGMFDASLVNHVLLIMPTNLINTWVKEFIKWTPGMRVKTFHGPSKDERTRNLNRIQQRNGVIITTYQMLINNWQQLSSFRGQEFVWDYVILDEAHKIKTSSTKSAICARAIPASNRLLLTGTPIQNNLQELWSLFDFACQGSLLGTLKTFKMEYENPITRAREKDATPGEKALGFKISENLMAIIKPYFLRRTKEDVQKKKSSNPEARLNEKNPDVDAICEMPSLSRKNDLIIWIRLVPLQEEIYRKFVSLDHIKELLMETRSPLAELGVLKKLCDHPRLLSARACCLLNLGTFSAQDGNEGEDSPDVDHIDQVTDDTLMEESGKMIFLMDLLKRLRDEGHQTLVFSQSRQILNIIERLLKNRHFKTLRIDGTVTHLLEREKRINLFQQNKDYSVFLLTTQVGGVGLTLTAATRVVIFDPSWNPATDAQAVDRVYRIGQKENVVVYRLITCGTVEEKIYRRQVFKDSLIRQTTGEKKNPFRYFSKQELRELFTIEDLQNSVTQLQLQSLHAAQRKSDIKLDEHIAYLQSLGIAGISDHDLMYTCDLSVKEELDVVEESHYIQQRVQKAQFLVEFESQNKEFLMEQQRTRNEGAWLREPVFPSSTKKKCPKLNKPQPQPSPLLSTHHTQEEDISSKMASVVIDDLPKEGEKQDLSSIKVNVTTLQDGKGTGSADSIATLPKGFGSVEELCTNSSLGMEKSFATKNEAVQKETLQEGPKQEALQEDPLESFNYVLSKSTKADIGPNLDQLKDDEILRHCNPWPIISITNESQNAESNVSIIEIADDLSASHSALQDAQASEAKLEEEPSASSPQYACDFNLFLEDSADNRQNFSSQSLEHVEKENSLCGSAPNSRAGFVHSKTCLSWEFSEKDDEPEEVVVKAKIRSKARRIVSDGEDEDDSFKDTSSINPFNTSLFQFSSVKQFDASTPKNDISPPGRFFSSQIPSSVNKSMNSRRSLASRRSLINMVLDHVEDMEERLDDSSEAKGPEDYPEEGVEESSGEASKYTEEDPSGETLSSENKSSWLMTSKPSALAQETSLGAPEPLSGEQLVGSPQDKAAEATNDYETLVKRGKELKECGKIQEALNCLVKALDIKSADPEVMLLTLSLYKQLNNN
UniProt Q9BV81: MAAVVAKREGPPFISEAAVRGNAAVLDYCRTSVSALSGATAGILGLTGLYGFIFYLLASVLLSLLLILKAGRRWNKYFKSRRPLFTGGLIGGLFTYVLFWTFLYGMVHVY
UniProt P38919, whole entry, looked up: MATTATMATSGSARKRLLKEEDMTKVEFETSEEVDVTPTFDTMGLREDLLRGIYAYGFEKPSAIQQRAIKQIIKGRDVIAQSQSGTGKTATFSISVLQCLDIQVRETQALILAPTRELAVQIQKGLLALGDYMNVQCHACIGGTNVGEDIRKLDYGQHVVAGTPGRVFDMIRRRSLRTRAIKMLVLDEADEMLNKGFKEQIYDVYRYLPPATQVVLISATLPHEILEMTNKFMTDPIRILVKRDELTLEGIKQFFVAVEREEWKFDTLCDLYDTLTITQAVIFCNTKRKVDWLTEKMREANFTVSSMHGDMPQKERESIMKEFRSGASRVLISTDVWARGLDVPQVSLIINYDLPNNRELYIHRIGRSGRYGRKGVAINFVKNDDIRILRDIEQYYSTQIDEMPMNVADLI
UniProt P60228, whole entry, looked up: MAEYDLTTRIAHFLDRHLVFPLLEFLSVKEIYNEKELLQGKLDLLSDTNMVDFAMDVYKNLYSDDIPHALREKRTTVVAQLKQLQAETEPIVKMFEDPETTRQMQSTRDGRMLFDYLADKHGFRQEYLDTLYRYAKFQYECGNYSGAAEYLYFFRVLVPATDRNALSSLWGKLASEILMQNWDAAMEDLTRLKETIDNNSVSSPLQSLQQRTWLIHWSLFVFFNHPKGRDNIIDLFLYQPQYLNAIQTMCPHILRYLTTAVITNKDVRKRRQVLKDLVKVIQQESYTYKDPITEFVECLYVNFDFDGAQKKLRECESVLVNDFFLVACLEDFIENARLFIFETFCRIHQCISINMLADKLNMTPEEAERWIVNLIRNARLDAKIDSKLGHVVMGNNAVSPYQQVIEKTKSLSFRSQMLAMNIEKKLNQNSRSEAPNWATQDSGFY

This is one part of the list.

Compound in the first assay: CC[C@@H]1C(=O)N(C)c2cnc(Nc3ccc(C(=O)NC4CCN(C)CC4)cc3OC)nc2N1C1CCCC1
The experiment in a line: log2 fold change, soluble protein after heating vs DMSO (PISA); higher = thermal stabilisation; K562 lysate, 10 uM; active = over 0.2 and 3.5 SD of the protein, either way, in both replicates (recomputed). Put shortly:
(§1)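 Values give the log-two fold change in thermal stability against solvent controls, from duplicates. Crude K562 extract at 1 mg/mL protein, made by dounce homogenisation in PBS pH 7.4 with 1 mM MgCl2, was treated with 10 μM compound for 30 min. After 3 min heating across 48°C-58°C, aliquots were pooled, adjusted to 0.5% NP-40 at 4°C and centrifuged at 21,000xg for 90 min. The supernatant was measured by TMTpro 16plex LC-MS/MS with channel sums equalised.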
As for EPB41L1 (UniProt Q9H4G0), the log2 fold change is inactive: -0.007.
Still for that read-out and setting: to ELAC2 (UniProt Q9BQ52) belongs inactive: 0.013.
As for EIF4B (UniProt P23588), the log2 fold change was inactive: -0.008.
The same measure, in the same setting: next, EIF3F (UniProt O00303): inactive: -0.061.
For EIF2D (UniProt P41214), the log2 fold change is inactive: -0.074.
In the case of EMC2 (UniProt Q15006), the log2 fold change is inactive: -0.058.
Take EP300 (UniProt Q09472): the log2 fold change was inactive: -0.006.
On the same count and under the same terms, next, EIF5B (UniProt O60841): inactive: 0.016.
With ERCC2 (UniProt P18074), the log2 fold change was inactive: -0.077.
With EMC10 (UniProt Q5UCC4), the log2 fold change was inactive: -0.028.
Still for that read-out and setting: next, EML2 isoform 3 (UniProt O95834): inactive: -0.032.
Same read-out and setting: next, EMC8 (UniProt O43402): inactive: 0.025; EIF3D (UniProt O15371): inactive: -0.094; ENGASE (UniProt Q8NFI3): inactive: 0.
Still for that read-out and setting: to EPS15L1 isoform 2 (UniProt Q9UBC2) belongs inactive: 0.017; to EP400P1 isoform 6 (UniProt Q6ZTU2), inactive: 0.001; to ENTPD5 (UniProt O75356), inactive: -0.076.
On to ELP6 (UniProt Q0PNE2), for which the log2 fold change is inactive: 0.064.
Regarding EIF2B5 (UniProt Q13144), the log2 fold change is inactive: -0.012.
The same measure, in the same setting: to EIF3G (UniProt O75821) belongs inactive: 0.021; to ELOC (UniProt Q15369), inactive: -0.036.
Take EML3 (UniProt Q32P44): the log2 fold change was inactive: -0.017.
On the same count and under the same terms, to ELOA (UniProt Q14241) belongs inactive: 0.075.
For EIF2AK4 (UniProt Q9P2K8), the log2 fold change is inactive: 0.031.
Same read-out and setting: to EMC3 (UniProt Q9P0I2) belongs inactive: 0.047; to EMP3 (UniProt P54852), inactive: 0.066; to EMC4 (UniProt Q5J8M3), inactive: -0.045.
The same measure, in the same setting: next, EPB41L3 (UniProt Q9Y2J2): inactive: 0.045; EIF4EBP2 (UniProt Q13542): inactive: 0.218.
Still for that read-out and setting: to ERCC6L (UniProt Q2NKX8) belongs inactive: -0.047; to EIF4E isoform 2 (UniProt P06730), inactive: -0.122; to EMC6 (UniProt Q9BV81), inactive: 0.172.
Regarding EIF4A3 (UniProt P38919), the log2 fold change is inactive: -0.035.
With EIF3E (UniProt P60228), the log2 fold change was inactive: -0.119.
Still for that read-out and setting: to EPHX2 (UniProt P34913) belongs inactive: 0.016.

Compound in another assay: CC[C@@H]1C(=O)N(C)c2cnc(Nc3ccc(C(=O)N[C@H]4CC[C@H](N5CCN(CC6CC6)CC5)CC4)cc3OC)nc2N1C(C)C [volasertib]
The assay is described as above. Put shortly: as §1
On to EPB41L1 (UniProt Q9H4G0), for which the log2 fold change was inactive: -0.049.
Regarding ELAC2 (UniProt Q9BQ52), the log2 fold change is inactive: -0.01.
With EIF4B (UniProt P23588), the log2 fold change is inactive: 0.017.
Consider EIF3F (UniProt O00303), for which the log2 fold change is inactive: -0.039.
On the same count and under the same terms, to EIF2D (UniProt P41214) belongs inactive: -0.052; to EMC2 (UniProt Q15006), inactive: -0.027; to EP300 (UniProt Q09472), inactive: -0.042.
Same read-out and setting: to EIF5B (UniProt O60841) belongs inactive: -0.003; to ERCC2 (UniProt P18074), inactive: -0.043.
The same measure, in the same setting: to EMC10 (UniProt Q5UCC4) belongs inactive: 0.
With EML2 isoform 3 (UniProt O95834), the log2 fold change was inactive: -0.013.
The same measure, in the same setting: to EMC8 (UniProt O43402) belongs inactive: -0.011; to EIF3D (UniProt O15371), inactive: -0.046.
ENGASE (UniProt Q8NFI3): the log2 fold change was inactive: -0.035.
Still for that read-out and setting: to EPS15L1 isoform 2 (UniProt Q9UBC2) belongs inactive: 0.022.
Same read-out and setting: next, EP400P1 isoform 6 (UniProt Q6ZTU2): inactive: -0.022; ENTPD5 (UniProt O75356): inactive: -0.02.
Still for that read-out and setting: to ELP6 (UniProt Q0PNE2) belongs inactive: 0.026.
Take EIF2B5 (UniProt Q13144): the log2 fold change was inactive: -0.027.
For the target EIF3G (UniProt O75821), the log2 fold change was inactive: 0.014.
As for ELOC (UniProt Q15369), the log2 fold change was inactive: 0.027.
Same read-out and setting: to EML3 (UniProt Q32P44) belongs inactive: -0.035; to ELOA (UniProt Q14241), inactive: 0.008; to EIF2AK4 (UniProt Q9P2K8), inactive: -0.001.
Still for that read-out and setting: next, EMC3 (UniProt Q9P0I2): inactive: -0.018; EMP3 (UniProt P54852): inactive: 0.124; EMC4 (UniProt Q5J8M3): inactive: -0.006.
The same measure, in the same setting: next, EPB41L3 (UniProt Q9Y2J2): inactive: 0.006; EIF4EBP2 (UniProt Q13542): inactive: 0.062.
For the target ERCC6L (UniProt Q2NKX8), the log2 fold change was inactive: -0.046.
Turning to EIF4E isoform 2 (UniProt P06730), the log2 fold change is inactive: -0.013.
On the same count and under the same terms, to EMC6 (UniProt Q9BV81) belongs inactive: -0.011; to EIF4A3 (UniProt P38919), inactive: -0.023.
On the same count and under the same terms, to EIF3E (UniProt P60228) belongs inactive: -0.081; to EPHX2 (UniProt P34913), inactive: 0.041.
